Laboratory results as given in the supplement of paper PMC7666118.
The list shows a part of the results.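 Rule for the calls: active = dose-dependent thermal stabilisation significant by F-test of dose-response against flat model at 10% FDR; inactive = not significant.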

Protein sequences, listed by entry. Tags and fused reporters are not part of them. Lines headed by an entry give the natural chain unless they say otherwise; changes in a name come on top.
UniProt Q9H974: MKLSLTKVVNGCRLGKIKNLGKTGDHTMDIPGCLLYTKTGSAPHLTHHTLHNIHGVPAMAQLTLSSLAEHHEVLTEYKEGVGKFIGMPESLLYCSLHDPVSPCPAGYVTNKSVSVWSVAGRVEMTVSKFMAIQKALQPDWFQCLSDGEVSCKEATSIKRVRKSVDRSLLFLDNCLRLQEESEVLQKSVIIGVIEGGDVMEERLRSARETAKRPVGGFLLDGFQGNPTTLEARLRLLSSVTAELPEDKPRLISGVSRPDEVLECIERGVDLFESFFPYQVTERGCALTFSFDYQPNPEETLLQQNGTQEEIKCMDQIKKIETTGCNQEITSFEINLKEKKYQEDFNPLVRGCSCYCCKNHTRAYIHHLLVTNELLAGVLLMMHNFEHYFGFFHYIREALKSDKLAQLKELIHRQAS
UniProt Q6VN20, whole entry: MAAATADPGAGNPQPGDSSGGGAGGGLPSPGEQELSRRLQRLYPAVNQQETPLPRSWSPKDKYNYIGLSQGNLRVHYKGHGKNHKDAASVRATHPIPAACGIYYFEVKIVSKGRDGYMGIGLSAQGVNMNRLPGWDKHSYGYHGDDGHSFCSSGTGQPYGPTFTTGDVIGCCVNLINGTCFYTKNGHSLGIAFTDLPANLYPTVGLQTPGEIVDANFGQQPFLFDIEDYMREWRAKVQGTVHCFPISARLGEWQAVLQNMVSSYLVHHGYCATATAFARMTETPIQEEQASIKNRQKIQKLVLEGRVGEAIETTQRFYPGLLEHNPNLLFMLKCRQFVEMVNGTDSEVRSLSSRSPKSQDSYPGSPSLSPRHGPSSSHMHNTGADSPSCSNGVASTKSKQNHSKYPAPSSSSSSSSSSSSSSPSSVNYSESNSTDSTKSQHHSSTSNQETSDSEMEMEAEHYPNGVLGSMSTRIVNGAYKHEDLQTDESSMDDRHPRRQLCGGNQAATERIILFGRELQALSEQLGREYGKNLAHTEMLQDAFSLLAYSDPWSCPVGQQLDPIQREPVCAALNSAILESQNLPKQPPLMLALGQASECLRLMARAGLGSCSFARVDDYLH
UniProt Q9H5N1: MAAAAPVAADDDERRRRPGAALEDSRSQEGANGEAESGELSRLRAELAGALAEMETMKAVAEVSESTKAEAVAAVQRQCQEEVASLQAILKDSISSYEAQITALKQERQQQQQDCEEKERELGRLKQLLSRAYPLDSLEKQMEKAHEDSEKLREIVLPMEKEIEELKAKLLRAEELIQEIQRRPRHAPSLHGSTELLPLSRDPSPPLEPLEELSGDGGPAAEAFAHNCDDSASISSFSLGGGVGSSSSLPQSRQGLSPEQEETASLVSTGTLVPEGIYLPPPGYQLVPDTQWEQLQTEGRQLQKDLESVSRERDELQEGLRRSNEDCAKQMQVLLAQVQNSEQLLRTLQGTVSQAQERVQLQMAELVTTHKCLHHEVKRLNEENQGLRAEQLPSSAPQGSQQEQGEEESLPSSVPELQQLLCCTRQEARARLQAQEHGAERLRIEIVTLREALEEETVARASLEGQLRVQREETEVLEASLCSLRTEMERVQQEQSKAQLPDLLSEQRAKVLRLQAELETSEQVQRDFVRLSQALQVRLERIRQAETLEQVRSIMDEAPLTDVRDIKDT
UniProt P18031: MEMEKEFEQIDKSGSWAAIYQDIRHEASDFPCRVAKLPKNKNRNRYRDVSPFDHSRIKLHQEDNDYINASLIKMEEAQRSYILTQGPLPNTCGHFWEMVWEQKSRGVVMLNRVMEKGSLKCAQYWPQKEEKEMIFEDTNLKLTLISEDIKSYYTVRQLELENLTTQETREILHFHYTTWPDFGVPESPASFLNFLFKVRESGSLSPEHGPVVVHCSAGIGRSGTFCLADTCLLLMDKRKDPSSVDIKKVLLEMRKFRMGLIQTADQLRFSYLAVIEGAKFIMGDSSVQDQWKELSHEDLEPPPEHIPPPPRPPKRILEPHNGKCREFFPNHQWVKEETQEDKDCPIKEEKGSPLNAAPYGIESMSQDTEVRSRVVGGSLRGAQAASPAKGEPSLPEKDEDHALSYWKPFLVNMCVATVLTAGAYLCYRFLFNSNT
UniProt Q9BRQ0: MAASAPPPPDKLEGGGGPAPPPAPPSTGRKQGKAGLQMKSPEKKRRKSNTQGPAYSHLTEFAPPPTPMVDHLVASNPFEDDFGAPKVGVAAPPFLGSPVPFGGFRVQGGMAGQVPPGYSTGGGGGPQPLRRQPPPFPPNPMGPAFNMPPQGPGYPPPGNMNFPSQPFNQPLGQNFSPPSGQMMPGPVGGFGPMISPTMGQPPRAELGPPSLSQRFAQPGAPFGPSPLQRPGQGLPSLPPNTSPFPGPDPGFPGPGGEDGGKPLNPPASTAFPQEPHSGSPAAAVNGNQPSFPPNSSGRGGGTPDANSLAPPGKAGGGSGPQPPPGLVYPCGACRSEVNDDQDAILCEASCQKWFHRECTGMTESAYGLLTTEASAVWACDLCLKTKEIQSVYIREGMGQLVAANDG
UniProt O95716: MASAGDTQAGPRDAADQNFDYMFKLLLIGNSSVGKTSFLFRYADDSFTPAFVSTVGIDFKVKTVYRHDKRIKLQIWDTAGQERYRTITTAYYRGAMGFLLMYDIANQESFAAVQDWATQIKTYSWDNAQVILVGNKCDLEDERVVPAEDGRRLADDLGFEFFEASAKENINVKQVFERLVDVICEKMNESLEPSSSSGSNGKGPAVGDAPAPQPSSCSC
UniProt P48556: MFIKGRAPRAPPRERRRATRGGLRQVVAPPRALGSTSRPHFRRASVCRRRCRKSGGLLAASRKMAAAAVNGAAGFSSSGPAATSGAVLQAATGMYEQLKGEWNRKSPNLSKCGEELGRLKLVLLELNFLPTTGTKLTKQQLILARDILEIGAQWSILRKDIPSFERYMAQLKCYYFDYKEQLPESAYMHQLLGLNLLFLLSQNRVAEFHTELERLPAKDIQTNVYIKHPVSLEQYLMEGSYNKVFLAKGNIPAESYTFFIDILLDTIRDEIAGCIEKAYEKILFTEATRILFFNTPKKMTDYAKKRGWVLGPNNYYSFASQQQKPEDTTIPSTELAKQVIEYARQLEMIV
UniProt Q9HD47: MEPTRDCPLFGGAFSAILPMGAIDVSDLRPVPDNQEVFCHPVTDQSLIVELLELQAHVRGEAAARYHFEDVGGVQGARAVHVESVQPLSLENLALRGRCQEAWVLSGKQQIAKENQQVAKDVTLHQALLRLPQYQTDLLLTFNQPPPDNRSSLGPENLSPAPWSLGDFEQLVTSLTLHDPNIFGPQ
UniProt P51665: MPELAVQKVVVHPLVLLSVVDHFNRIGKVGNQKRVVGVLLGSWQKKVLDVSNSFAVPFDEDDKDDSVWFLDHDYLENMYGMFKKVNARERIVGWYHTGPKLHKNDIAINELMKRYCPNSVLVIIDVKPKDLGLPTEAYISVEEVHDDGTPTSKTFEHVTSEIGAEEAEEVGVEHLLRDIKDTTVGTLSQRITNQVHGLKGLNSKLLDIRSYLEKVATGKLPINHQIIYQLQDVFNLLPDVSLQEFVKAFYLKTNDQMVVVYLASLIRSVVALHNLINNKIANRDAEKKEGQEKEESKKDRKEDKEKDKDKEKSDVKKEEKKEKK
UniProt Q9BQ04: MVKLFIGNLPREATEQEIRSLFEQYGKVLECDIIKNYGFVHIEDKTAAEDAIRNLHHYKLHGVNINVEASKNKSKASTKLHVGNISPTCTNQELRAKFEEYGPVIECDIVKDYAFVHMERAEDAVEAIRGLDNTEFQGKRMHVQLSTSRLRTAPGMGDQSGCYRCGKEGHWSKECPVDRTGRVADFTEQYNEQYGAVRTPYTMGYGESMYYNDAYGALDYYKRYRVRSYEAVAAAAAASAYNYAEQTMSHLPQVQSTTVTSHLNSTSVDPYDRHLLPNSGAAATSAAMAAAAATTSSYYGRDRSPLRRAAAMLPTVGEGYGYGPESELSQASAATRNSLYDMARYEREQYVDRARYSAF
UniProt P29350: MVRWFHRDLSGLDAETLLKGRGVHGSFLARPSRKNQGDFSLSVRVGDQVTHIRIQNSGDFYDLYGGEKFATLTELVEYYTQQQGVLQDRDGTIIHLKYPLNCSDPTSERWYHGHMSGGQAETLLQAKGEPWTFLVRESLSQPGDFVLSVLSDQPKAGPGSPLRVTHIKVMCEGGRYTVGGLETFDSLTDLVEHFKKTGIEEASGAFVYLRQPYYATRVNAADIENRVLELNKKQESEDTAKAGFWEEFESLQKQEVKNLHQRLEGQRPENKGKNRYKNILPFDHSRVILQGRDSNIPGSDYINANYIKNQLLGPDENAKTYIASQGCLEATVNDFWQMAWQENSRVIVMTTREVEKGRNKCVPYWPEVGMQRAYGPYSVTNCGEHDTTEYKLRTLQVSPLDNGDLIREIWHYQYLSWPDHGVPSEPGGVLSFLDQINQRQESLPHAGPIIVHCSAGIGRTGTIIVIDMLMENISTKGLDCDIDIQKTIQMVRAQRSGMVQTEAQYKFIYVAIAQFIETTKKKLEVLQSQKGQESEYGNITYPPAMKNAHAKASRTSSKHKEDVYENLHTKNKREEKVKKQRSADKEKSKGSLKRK
UniProt Q9BT73: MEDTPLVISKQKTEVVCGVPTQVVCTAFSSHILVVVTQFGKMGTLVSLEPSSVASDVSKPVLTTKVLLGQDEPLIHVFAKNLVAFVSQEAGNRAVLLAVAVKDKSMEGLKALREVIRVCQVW
UniProt O95456: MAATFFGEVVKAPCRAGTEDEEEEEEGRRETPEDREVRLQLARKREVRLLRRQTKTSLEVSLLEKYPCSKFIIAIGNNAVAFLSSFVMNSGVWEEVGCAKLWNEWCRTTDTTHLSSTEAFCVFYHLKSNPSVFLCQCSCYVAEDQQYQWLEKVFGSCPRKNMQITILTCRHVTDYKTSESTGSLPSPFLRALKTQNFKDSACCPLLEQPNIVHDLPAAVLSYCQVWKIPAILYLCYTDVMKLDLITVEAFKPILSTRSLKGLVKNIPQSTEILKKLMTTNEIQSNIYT
UniProt P24723, whole entry: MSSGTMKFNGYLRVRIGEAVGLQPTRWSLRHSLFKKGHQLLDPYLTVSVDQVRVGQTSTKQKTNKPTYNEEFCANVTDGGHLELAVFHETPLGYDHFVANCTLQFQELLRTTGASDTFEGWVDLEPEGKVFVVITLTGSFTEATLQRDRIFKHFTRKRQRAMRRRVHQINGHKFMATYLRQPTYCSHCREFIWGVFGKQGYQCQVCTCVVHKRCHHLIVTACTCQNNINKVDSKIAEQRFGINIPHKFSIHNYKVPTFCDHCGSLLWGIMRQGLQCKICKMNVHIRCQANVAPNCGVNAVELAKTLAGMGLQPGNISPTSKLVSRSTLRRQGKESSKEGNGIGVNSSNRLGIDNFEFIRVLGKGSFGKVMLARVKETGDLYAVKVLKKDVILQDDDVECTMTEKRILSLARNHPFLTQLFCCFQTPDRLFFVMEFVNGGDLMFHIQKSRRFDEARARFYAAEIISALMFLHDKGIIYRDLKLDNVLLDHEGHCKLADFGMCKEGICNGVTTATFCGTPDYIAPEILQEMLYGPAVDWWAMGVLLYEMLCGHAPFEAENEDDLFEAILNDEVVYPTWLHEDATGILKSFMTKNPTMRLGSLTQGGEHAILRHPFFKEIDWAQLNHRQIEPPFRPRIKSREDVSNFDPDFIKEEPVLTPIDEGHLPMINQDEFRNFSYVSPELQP
UniProt Q99633: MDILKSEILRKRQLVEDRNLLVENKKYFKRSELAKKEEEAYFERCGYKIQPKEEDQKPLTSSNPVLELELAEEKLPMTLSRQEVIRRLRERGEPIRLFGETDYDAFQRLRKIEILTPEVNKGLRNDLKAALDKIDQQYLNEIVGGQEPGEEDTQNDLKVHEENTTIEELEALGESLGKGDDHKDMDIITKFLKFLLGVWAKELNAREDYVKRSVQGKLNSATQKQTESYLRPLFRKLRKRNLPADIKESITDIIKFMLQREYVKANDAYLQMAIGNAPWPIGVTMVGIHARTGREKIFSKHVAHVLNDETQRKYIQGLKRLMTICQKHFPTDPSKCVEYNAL
UniProt Q9BTD8: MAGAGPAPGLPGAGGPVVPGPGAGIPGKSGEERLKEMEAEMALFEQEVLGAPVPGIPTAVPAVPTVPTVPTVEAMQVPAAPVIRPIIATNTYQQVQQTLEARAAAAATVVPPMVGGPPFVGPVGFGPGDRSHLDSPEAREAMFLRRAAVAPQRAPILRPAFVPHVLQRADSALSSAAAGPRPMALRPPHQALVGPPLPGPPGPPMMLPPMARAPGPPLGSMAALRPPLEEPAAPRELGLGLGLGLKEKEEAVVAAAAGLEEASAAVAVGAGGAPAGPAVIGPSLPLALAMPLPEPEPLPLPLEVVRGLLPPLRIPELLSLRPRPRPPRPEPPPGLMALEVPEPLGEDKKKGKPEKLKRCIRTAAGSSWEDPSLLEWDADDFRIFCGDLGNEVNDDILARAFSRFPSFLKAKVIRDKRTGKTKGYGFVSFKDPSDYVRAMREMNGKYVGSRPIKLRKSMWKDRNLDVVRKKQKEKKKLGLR
UniProt Q9H875: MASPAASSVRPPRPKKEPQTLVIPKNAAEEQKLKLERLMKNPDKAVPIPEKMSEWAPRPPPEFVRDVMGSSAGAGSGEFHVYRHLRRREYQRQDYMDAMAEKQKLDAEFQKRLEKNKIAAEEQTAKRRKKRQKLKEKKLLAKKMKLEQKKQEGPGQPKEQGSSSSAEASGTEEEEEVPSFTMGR

compound: Nc1nc2c(ncn2[C@@H]2O[C@H](COP(=O)(O)OP(=O)(O)OP(=O)(O)O)[C@@H](O)[C@H]2O)c(=O)[nH]1; experiment: dose-dependent thermal stabilisation call (2D-TPP, DLPTP, 10% FDR) (binary (1 = stabilised)); higher = stabilised by the compound; conditions: system: Jurkat gel-filtered lysate; concentration range 1-500 µM
Description: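 2D thermal proteome profiling in gel-filtered Jurkat E6.1 lysate (2 mg/ml) treated with NaGTP (0, 1, 10, 100, 500 uM) for 10 min at room temperature, then heated 3 min at one of 12 temperatures (42-63.9 C). Soluble protein was quantified by TMT10 MS. The value is the DLPTP call of the paper: dose-dependent thermal stabilisation over all temperatures at 10% FDR (F-test of a dose-response against a flat model); one experiment, one call per tested protein.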

Target	dose-dependent thermal stabilisation call
RBM38 (UniProt Q9H0Z9)	inactive: 0
RCN1 (UniProt Q15293)	inactive: 0
PRKCQ (UniProt Q04759)	active: 1
RAB3IP (UniProt Q96QF0)	inactive: 0
PRMT9 (UniProt Q6P2P2)	inactive: 0
QTRT2 (UniProt Q9H974)	inactive: 0
RANBP10 (UniProt Q6VN20)	inactive: 0
RBM25 (UniProt P49756)	inactive: 0
PRKCA (UniProt P17252)	active: 1
RABEP2 (UniProt Q9H5N1)	inactive: 0
PTPN1 (UniProt P18031)	inactive: 0
PSMA7 (UniProt O14818)	inactive: 0
RAP1GDS1 (UniProt P52306)	inactive: 0
PRKACB (UniProt P22694)	inactive: 0
PYGO2 (UniProt Q9BRQ0)	inactive: 0
PRPF40A (UniProt O75400)	inactive: 0
RAB3D (UniProt O95716)	active: 1
PSMD8 (UniProt P48556)	inactive: 0
RANGRF (UniProt Q9HD47)	inactive: 0
PSMB7 (UniProt Q99436)	inactive: 0

Target	dose-dependent thermal stabilisation call
PSMD7 (UniProt P51665)	inactive: 0
RBM4B (UniProt Q9BQ04)	active: 1
RARS (UniProt P54136)	inactive: 0
PTPN6 (UniProt P29350)	active: 1
PSMG3 (UniProt Q9BT73)	inactive: 0
PRKAR2A (UniProt P13861)	inactive: 0
PSMG1 (UniProt O95456)	inactive: 0
PURB (UniProt Q96QR8)	inactive: 0
PRKCH (UniProt P24723)	active: 1
RAB3GAP1 (UniProt Q15042)	active: 1
PSMD14 (UniProt O00487)	inactive: 0
PRPF18 (UniProt Q99633)	inactive: 0
RBM42 (UniProt Q9BTD8)	inactive: 0
PTER (UniProt Q96BW5)	inactive: 0
RAB9A (UniProt P51151)	inactive: 0
RAD1 (UniProt O60671)	inactive: 0
PRKRIP1 (UniProt Q9H875)	inactive: 0
RAB23 (UniProt Q9ULC3)	active: 1
RBM8A (UniProt Q9Y5S9)	inactive: 0
R3HDM2 (UniProt Q9Y2K5)	inactive: 0

As a short view, part of the list above.
Target	dose-dependent thermal stabilisation call
PSMD14 (UniProt O00487)	inactive: 0
PRPF18 (UniProt Q99633)	inactive: 0
